Test results reported in article doi:10.1101/2021.01.10.425752.
No constants are given. Whether binding was seen depends on the method and setting. Some binding calls cover weakened binding; strength is not graded here.

Target: T1, RhopH2 (P. falciparum) (UniProt C0H571)
T1 sequence: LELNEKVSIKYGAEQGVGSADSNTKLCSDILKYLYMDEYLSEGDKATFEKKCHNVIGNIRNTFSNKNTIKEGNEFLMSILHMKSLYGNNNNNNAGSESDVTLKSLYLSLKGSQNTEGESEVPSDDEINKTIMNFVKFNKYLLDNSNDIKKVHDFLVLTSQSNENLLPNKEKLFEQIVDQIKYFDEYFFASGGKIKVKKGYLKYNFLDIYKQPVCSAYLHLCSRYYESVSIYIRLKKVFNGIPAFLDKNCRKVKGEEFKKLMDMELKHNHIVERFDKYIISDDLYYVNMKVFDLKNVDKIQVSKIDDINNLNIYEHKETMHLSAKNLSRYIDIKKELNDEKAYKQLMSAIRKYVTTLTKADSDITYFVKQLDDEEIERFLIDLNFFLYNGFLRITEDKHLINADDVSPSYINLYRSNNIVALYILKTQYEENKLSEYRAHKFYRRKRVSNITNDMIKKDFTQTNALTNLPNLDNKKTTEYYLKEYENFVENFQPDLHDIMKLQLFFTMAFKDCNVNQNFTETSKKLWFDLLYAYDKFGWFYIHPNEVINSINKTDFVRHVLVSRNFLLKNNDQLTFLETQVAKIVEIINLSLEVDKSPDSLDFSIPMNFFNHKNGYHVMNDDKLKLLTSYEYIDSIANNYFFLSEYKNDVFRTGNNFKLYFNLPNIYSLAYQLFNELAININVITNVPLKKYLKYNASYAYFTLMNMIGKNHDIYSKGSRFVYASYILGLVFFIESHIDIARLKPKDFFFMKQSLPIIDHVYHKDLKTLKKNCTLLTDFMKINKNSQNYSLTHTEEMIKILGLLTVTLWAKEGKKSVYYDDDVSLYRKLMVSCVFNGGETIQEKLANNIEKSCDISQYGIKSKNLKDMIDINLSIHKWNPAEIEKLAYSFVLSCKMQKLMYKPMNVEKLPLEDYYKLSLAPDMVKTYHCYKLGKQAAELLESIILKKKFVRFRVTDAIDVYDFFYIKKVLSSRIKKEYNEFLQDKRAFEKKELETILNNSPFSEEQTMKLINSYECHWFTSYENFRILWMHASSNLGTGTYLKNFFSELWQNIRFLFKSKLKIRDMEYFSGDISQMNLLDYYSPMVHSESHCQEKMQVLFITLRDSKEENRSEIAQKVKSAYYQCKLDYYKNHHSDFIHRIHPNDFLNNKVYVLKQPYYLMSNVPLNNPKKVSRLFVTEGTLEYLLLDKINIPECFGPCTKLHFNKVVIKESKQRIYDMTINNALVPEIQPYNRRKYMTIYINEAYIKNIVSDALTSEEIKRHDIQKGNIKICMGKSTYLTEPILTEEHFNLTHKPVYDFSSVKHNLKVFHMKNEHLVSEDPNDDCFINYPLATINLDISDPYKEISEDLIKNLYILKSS
Experiment: cryo-EM structure

B1: RhopH3 (protein, UniProt Q8I395 25-897)
chain: KDVFAGFVTKKLKTLLDCNFALYYNFKGNGPDAGSFLDFVDEPEQFYWFVEHFLSVKFRVPKHLKDKNIHNFTPCLNRSWVSEFLKEYEEPFVNPVMKFLDKEQRLFFTYNFGDVEPQGKYTYFPVKEFHKYCILPPLIKTNIKDGESGEFLKYQLNKEEYKVFLSSVGSQMTAIKNLYSTVEDEQRKQLLKVIIENESTNDISVQCPTYNIKLHYTKECANSNNILKCIDEFLRKTCEKKTESKHPSADLCEHLQFLFESLKNPYLDNFKKFMTNSDFTLIKPQSVWNVPIFDIYKPKNYLDSVQNLDTECFKKLNSKNLIFLSFHDDIPNNPYYNVELQEIVKLSTYTYSIFDKLYNFFFVFKKSGAPISPVSVKELSHNITDFSFKEDNSEIQCQNVRKSLDLEVDVETMKGIAAEKLCKIIEKFILTKDDASKPEKSDIHRGFRILCILISTHVEAYNIVRQLLNMESMISLTRYTSLYIHKFFKSVTLLKGNFLYKNNKAIRYSRACSKASLHVPSVLYRRNIYIPETFLSLYLGLSNLVSSNPSSPFFEYAIIEFLVTYYNKGSEKFVLYFISIISVLYINEYYYEQLSCFYPKEFELIKSRMIHPNIVDRILKGIDNLMKSTRYDKMRTMYLDFESSDIFSREKVFTALYNFDSFIKTNEQLKKKNLEEISEIPVQLETSNDGIGYRKQDVLYETDKPQTMDEASYEETVDEDAHHVNEKQHSAHFLDAIAEKDILEEKTKDQDLEIELYKYMGPLKEQSKSTSAASTSDEISGSEGPSTESTSTGNQGEDKTTDNTYKEMEELEEAEGTSNLKKGLEFYKSSLKLDQLDKEKPKKKKSKRKKKRDSSSDRILLEESKTFTSENEL
binding: binds
